The values below come from paper doi:10.1101/266833.

Results are given in words; binding and its absence hold for the method and conditions named. Binding seen in cells or lysates may run through a third protein. These calls come from enrichment with a bait or labelling near it, and not all partners need be listed. For some assays here: No binding means not detected with the bait.

For assay [1], the target named is T1, TAP-Upf1-CH (2-208) (S. cerevisiae) (UniProt P30771).
T1 sequence: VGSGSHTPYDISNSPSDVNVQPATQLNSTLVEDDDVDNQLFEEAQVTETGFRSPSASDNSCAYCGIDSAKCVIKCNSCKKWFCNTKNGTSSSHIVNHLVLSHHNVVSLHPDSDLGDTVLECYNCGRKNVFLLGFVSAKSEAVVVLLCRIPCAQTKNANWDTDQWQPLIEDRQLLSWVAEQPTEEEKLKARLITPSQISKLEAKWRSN
Nature of the assay: condition: only with RNase A and RNase T1 treatment.

Assay [2] addresses T2, TAP-Upf1-CH-HD (2-853) (S. cerevisiae) (UniProt P30771).
T2 sequence: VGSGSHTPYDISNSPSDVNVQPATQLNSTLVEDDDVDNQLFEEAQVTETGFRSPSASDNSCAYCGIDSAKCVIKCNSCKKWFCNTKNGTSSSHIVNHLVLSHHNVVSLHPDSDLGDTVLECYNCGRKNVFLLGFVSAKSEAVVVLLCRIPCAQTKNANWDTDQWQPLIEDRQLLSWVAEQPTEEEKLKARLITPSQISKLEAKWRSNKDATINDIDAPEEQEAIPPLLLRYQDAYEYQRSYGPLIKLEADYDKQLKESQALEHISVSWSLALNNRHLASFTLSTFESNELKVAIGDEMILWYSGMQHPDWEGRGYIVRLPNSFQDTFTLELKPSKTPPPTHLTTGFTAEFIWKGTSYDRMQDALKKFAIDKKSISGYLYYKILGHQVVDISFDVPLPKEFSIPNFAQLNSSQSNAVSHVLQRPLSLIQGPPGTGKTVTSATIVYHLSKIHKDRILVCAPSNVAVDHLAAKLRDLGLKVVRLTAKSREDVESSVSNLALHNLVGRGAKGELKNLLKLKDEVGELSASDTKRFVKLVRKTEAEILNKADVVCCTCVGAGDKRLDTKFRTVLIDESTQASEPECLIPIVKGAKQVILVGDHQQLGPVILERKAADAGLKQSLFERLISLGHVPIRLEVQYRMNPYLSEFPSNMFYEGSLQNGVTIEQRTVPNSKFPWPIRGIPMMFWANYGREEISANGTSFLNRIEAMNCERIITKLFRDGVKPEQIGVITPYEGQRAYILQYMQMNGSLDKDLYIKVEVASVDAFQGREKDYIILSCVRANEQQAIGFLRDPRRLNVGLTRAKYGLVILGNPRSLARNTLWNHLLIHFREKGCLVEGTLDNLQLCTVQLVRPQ
In words: affinity purification with mass spectrometry.

B1: Ebs1 (protein, UniProt Q03466 1-884)
chain: MEPSNTQKEDLPTAFNGIKSQLNSILKSNQLFQDYALLNGFLAFVHSKLNAAILTSIESQCGKSFAADLDSFDQSSISSILDFSWESVHYPIFKWFQMWRNYILFEKENKKQQTKFIDFRKMNSKMLKFFKTVQNFYVNVINTVYKKYDISVLLPKRIIQDLKLSDIENTTNVGDILAVKTFNSSSPLAHLIPTLFHRCLLFLGTAYRYKTLLEEISNKYSISNFKKSLDFFRLASLVLPSAGETYSQAGAIFLQTGNLGIAVFNFVKGMMTKMPSPVSIKNFGALMVDNKSSLNRSLHTTIMNTYLQESKGPRTPAKEILEFYFLGLFGSVWSPTSWRDDTKPNQLNNGIKLRHLENALYETMSARYLNNIKTIFHNLIITIGGFHLLLKRRSDVSAKTLKDLRSNELDYLNFAFKYIAHILNDIVKESWSENPEVSEILGMVRIINCWIKANPMVLQYSQSNLEFVNALAYLINDIVKKKPSPSFSITEHIPKRTYWFEEDLMVKGLSFVNFQLSDFDDYEKILEMDHSLDRLIGNPPLCDKLSASSEMLLRLQAVVNISSQLLQNNNCGVEWSDNKSRYIFNKKIGFKETVKNSMKTSKQSNEKAKLQRKNKPSTTNGSISMADLERQMRSSSLDSFSPTMGYSGSSVPMAPDTFNVKPSGTITGNKVNVELLKIELSGQNADGAITNISPGYSNAAISSSNSTDESSFDLNNILSSMQQKHAEKSFAKSMQGVNEQIPANDVCHQAQRPMQGGLYSSQQPSSMSSLNSAYQNASMPPSASMVSYPYPFLNQQGQGVFPPYNAQNLQWQSEAYSLKSMNFANPTWLGDQYQTSAPSSAYAQAQRQMFQQPMQQDVGKYMQFPFDAQSNTDSMRGNSRNNMF
Regarding B1, in assay [1], the binding entry was “no binding”.

B2: Nmd4 (protein, UniProt Q12129 1-218)
chain: MTQYNFIIDASAFEKGLGNIKRWCSDCTEAVTLNFYIPTFTLNELDFLQQRRKSFAARESLKFIDRLDDSKFANLKVFIEFPEVLDIILWSDVMEHNDSSGKINIAKLPKRLKNLLKSCIYKCYLEGNEGLHWFLISEDPQIREMAMQCNIPSCSIVDVDSILSKDMNDKSFRESEKFNNMMLKNGTKEESENGREIIRTNFNKTVYASRGTGELWSP
With B2, the binding entry in assay [2] is reported as “binds”.
